According to publication doi:10.1101/2022.12.16.520769:
These are yes or no findings as the source states them, for the method shown. Binding seen in cells or lysates may run through a third protein. Some results given as binding are weak or reduced against the parent protein; the word gives no strength. Sequences can lack the tags named with a protein.

T1: His-PGRP3 (human) (UniProt Q96LB9)
T1 sequence: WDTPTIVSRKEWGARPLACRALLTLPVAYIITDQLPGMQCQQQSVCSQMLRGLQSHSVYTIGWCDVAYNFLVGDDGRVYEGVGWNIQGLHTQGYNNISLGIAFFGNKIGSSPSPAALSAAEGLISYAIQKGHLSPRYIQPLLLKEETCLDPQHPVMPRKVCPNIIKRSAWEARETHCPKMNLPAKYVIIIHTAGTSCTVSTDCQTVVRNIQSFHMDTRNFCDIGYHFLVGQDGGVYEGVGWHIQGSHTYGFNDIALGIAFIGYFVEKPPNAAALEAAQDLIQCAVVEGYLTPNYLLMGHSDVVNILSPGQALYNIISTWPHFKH

T2: Myc-FLAG-MBNL3 (human) (UniProt Q9NUK0)
T2 sequence: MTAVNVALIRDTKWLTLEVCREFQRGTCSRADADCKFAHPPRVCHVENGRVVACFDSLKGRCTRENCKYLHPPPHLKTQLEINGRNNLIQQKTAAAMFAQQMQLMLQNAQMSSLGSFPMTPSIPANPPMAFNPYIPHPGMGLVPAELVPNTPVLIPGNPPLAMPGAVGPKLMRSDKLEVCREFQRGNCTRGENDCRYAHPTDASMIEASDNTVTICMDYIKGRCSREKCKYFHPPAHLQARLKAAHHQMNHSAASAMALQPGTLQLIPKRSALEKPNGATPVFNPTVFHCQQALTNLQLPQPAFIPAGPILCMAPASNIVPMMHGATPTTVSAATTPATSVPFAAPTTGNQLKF

T3: Myc-FLAG-RBP5 (human) (UniProt P82980)
T3 sequence: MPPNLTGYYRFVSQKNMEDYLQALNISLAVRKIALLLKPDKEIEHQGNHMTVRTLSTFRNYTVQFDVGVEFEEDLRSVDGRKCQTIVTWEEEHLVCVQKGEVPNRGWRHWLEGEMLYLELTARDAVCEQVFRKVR

B1: Myc-FLAG-MBNL3 (protein, UniProt Q9NUK0 1-354)
chain: T2 sequence
B2: Myc-FLAG-RBP5 (protein, UniProt P82980 1-135)
chain: T3 sequence
B3: His-PGRP3 (protein, UniProt Q96LB9 18-341)
chain: T1 sequence

Key:
Test in all cases: co-IP
[1] = target: T1, His-PGRP3 (human)
[2] = target: T2, Myc-FLAG-MBNL3 (human)
[3] = target: T3, Myc-FLAG-RBP5 (human)

| Binder | binding [1] | binding [2] | binding [3] |
| --- | --- | --- | --- |
| B1 | binds | – | – |
| B2 | binds | – | – |
| B3 | – | binds | binds |
